# PubChem BioAssay AID1224830 | NIAID, 2016
# Test: 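Host factors that control LPS-induced TNF expression in human macrophages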 (primary screen)
# Cell system: human THP-1 monocytic leukaemia cells, TNF dual-luciferase reporter clone, PMA-differentiated to macrophage-like cells
# Reagent: siRNA pool against human genes, 50 nM
# Timing: LPS for 4 h, given about 3 days after siRNA transfection
# Conditions: bacterial LPS (TLR4 ligand), 10 ng/ml
# Measured: 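Ratio of firefly to renilla light, scaled to the plate median and expressed as a robust z-score per replicate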
# Reading the numbers: TNF reporter robust z-score: higher = stronger TNF reporter response to LPS
# Hit rule: 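Each well counts as active if its z-score is over 2.8 or under -1.5; controls are left without a call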
# This is a random part of about 18,000 reagents. About 2,900 of all reagents (16%) count as active. 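Calls are made per well; low scores hint the gene aids the LPS response, high scores that it dampens it.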 Entries without a mark were called inactive. Repeated entries: four replicate wells of each siRNA pool.
gene knocked down,TNF reporter robust z-score
ZMYM3 (zinc finger MYM-type containing 3),-1
ZMYM3 (zinc finger MYM-type containing 3),-0.81
ZMYM3 (zinc finger MYM-type containing 3),-0.64
ZMYM3 (zinc finger MYM-type containing 3),0.13
EREG (epiregulin),1.09
EREG (epiregulin),1.03
EREG (epiregulin),0.55
EREG (epiregulin),0.34
SARDH (sarcosine dehydrogenase),1.07
SARDH (sarcosine dehydrogenase),2.59
SARDH (sarcosine dehydrogenase),-0.11
SARDH (sarcosine dehydrogenase),0.76
CWF19L1 (CWF19 like cell cycle control factor 1),-1.26
CWF19L1 (CWF19 like cell cycle control factor 1),-0.1
CWF19L1 (CWF19 like cell cycle control factor 1),-1.17
CWF19L1 (CWF19 like cell cycle control factor 1),-0.97

More results follow:
gene knocked down,TNF reporter robust z-score
COXFA4L2 (cytochrome c oxidase hypoxia associated subunit FA4L2),1.04
COXFA4L2 (cytochrome c oxidase hypoxia associated subunit FA4L2),0.84
COXFA4L2 (cytochrome c oxidase hypoxia associated subunit FA4L2),1.65
COXFA4L2 (cytochrome c oxidase hypoxia associated subunit FA4L2),2.5
FDPS (farnesyl diphosphate synthase),-1.25
FDPS (farnesyl diphosphate synthase),-0.81
FDPS (farnesyl diphosphate synthase),-0.7
FDPS (farnesyl diphosphate synthase),-1.12
FAM76A (family with sequence similarity 76 member A),-0.49
FAM76A (family with sequence similarity 76 member A),-0.74
FAM76A (family with sequence similarity 76 member A),-0.42
FAM76A (family with sequence similarity 76 member A),-0.15
ORAI1 (ORAI calcium release-activated calcium modulator 1),-0.74
ORAI1 (ORAI calcium release-activated calcium modulator 1),-1.17
ORAI1 (ORAI calcium release-activated calcium modulator 1),-0.86
ORAI1 (ORAI calcium release-activated calcium modulator 1),0.14
HOXA2 (homeobox A2),1.6
HOXA2 (homeobox A2),0.71
HOXA2 (homeobox A2),1.55
HOXA2 (homeobox A2),1.01
FSTL4 (follistatin like 4),0.39
FSTL4 (follistatin like 4),0.42
FSTL4 (follistatin like 4),-0.04
DAG1 (dystroglycan 1),-1.49
DAG1 (dystroglycan 1),-0.17
DAG1 (dystroglycan 1),-0.09
DAG1 (dystroglycan 1),1.29
FAM120A (family with sequence similarity 120 member A),-0.72
FAM120A (family with sequence similarity 120 member A),-0.54
FAM120A (family with sequence similarity 120 member A),-0.88
FAM120A (family with sequence similarity 120 member A),-0.3
